Where “and” joins values, the source holds several entries; their conditions need not be identical. Equal values may be shown once. Where a name gives a salt, the structure may show the parent alone.

Holding throughout (parameters): species or system mice
The subject of data set [1] is clonogenic stem cells of the digestive epithelium. Briefly: In vivo protection of intestinal epithelium clonogenic stem cells, chemotherapy drug damage, independent experiment 2. As for the experimental part: In Vivo Protection of Intestinal Epithelium Clonogenic Stem Cells—Chemotherapy Drug Damage—Independent Experiment 2.
The data presented in Example 4 were expanded in the following study, in which the ability of foscarnet (phosphonoformic acid trisodium salt hexahydrate) to prevent cytotoxic damage to clonogenic stem cells of the digestive epithelium was investigated using the following experiment.
The model of cytotoxic insult used was treatment with 2 doses of 5-Flurouracil 6 hours apart at 400 mg of 5-Fluorouracil/kilogram bodyweight. Such cytotoxic treatment provides a model of chemotherapy administered to patients undergoing treatment for cancer.
8 experimental groups, each of six mice, were established as set out below:
Group 1: Received intra-peritoneal injection, containing 50 mg foscarnet/kilogram bodyweight, in sterile water, one hour prior to the first cytotoxic treatment. Received one further identical injection on each of the three days following cytotoxic treatment.
Group 2: Received intra-peritoneal injection, containing 50 mg foscarnet/kilogram bodyweight, in sterile water, one hour prior to the first cytotoxic treatment.
Group 3: Received intra-peritoneal injection, containing 50 mg foscarnet/kilogram bodyweight, in sterile water on each of the three days following cytotoxic treatment.
Group 4: Received intra-peritoneal injection, containing 50 mg foscarnet/kilogram bodyweight, in sterile water, 5 minutes prior to the first cytotoxic treatment. Received one further identical injection on each of the three days following cytotoxic treatment.
Group 5: Vehicle control. Received intra-peritoneal injection, of sterile water, one hour prior to the first cytotoxic treatment. Received one further identical injection on each of the days following cytotoxic treatment.
Group 6: Vehicle control. Received intra-peritoneal injection, of sterile water, one hour prior to the first cytotoxic treatment.
Group 7: Vehicle control. Received intra-peritoneal injection, of sterile water, on each of the three days following cytotoxic treatment.
Group 8: Vehicle control. Received intra-peritoneal injection, of sterile water, 5 minutes prior to the first cytotoxic treatment. Received one further identical injection on each of the three days following cytotoxic treatment.
(§1) On the fourth day after treatment the animals of each group were killed, and intestinal tissue harvested for histological analysis. Tissue sections were stained with haemotoxylin and eosin, and were analysed for the presence of regenerating intestinal crypts. Regenerating intestinal crypts are derived from one or more surviving clonogenic stem cells, whereas sterilised crypts (containing no surviving stem cells) disappear within two days of irradiation. The number of regenerating crypts per intestinal circumference was counted, and the mean crypt width measured. Scores for each animal were then corrected to account for the probability of preferentially scoring larger crypts according to the following equation: [formula]
(§2) For each treatment a Protection Factor was calculated using the following equation: corrected crypts/circumference treated corrected crypts/circumference untreated (vehicle)

The test system is the same in data set [2]. Briefly: In vivo protection of intestinal epithelium clonogenic stem cells, radiation damage, independent experiment 2. The following applies: day 4.
Text: In Vivo Protection of Intestinal Epithelium Clonogenic Stem Cells—Radiation Damage Independent Experiment 2.
(§3) The ability of foscarnet (phosphonoformic acid trisodium salt hexahydrate) to prevent radiological damage to clonogenic stem cells of the digestive epithelium was illustrated by the following experiment.
(§4) The model of radiological insult used was treatment with 13 Gy X-ray whole body radiation at a dose rate of 0.7 Gy/minute. Such radiation treatment provides a model of radiotherapy administered to patients undergoing treatment for cancer.
Three experimental groups, each of six mice, were established as set out below:
(§5) Group 1: Received intra-peritoneal injection, containing 50 mg foscarnet/kilogram bodyweight, in sterile water, one hour prior to radiation treatment. Received one further identical injection on each of the three days following radiation treatment.
Group 2: Received intra-peritoneal injection, containing 25 mg foscarnet/kilogram bodyweight, in sterile water, one hour prior to radiation treatment. Received one further identical injection on each of the three days following radiation treatment.
(§6) Group 3: Vehicle control. Received intra-peritoneal injection, of sterile water, one hour prior to radiation treatment. Received one further identical injection on each of the three days following radiation treatment.
as §1, §2

For data set [3] the test system is unchanged. Briefly: In vivo protection of intestinal epithelium clonogenic stem cells, radiation damage, independent experiment 1 (regenerating crypts). The following applies: day 4.
Text: In Vivo Protection of Intestinal Epithelium Clonogenic Stem Cells—Radiation Damage Independent Experiment 1.
as §3, §4
Four experimental groups, each of six mice, were established as set out below:
as §5
Group 2: Received intra-peritoneal injection, containing 100 mg foscarnet/kilogram bodyweight, in sterile water, one hour prior to radiation treatment. Received one further identical injection on each of the three days following radiation treatment.
as §6
Group 4: Untreated controls. Received neither injections nor exposure to radiation.
as §1, §2

The test system is the same in data set [4]. Briefly: In vivo protection of intestinal epithelium clonogenic stem cells, chemotherapy drug (5-Flurouracil) damage. As for the experimental part: In Vivo Protection of Intestinal Epithelium Clonogenic Stem Cells—Chemotherapy Drug Damage.
The ability of foscarnet (phosphonoformic acid trisodium salt hexahydrate) to prevent cytotoxic damage to clonogenic stem cells of the digestive epithelium was illustrated by the following experiment.
The model of cytotoxic insult used was treatment with 2 doses of 5-Flurouracil 6 hours apart at either 400 mg or 500 mg of 5-Fluorouracil/kilogram bodyweight. Such cytotoxic treatment provides a model of chemotherapy administered to patients undergoing treatment for cancer.
Five experimental groups, each of five mice, were established as set out below:
Group 1: Received intra-peritoneal injection, containing 50 mg foscarnet/kilogram bodyweight, in sterile water, one hour prior to the first cytotoxic treatment (400 mg 5-Flurouracil/kilogram bodyweight). Received one further identical injection on each of the three days following cytotoxic treatment. […]
Group 3: Vehicle control. Received intra-peritoneal injection, of sterile water, one hour prior to both cytotoxic treatments (400 mg 5-Flurouracil/kilogram bodyweight). Received one further identical injection on each of the three days following cytotoxic treatment. […]
as §1, §2

Where [5] appears, read: 13Gy plus 50 mg foscarnet -1 hr, 1, 2, 3 day, group Average.
Where [6] appears, read: 13Gy plus 50 mg foscarnet -1 hr, 1, 2, 3 day, individual mice.

As to `O=C(O)P(=O)(O)O` [foscarnet, phosphonoformic acid trisodium salt hexahydrate], the crypt width in data set [1] (400 mg/kg 5FU x 2 6 hours apart plus 50 mg foscarnet/kg -5 minutes, D1, D2, D3, group Ave) was 33.68 um; in data set [1] (400 mg/kg 5FU x 2 6 hours apart plus 50 mg foscarnet/kg -5 minutes, D1, D2, D3, individual mice), 32.18 um and 37.12 um and 32.92 um and 32.76 um and 31.60 um and 35.47 um; in data set [1] (400 mg/kg 5FU x 2 6 hours apart plus 50 mg foscarnet/kg -1 hr only, group Ave), 33.71 um; in data set [1] (400 mg/kg 5FU x 2 6 hours apart plus 50 mg foscarnet/kg -1 hr only, individual mice) it was 38.42 um and 31.11 um and 34.22 um and 34.21 um and 32.90 um and 31.39 um; in data set [1] (400 mg/kg 5FU x 2 6 hours apart plus 50 mg foscarnet/kg -1 hr, D1, D2, D3, group Ave), 32.99 um; in data set [1] (400 mg/kg 5FU x 2 6 hours apart plus 50 mg foscarnet/kg -1 hr, D1, D2, D3, individual mice), 33.83 um and 29.37 um and 33.63 um and 34.46 um and 34.13 um and 32.51 um. For the same compound, the crypt width in data set [1] (400 mg/kg 5FU x 2 6 hours apart plus 50 mg foscarnet/kg D1, D2, D3, group Ave) was 31.34 um; in data set [1] (400 mg/kg 5FU x 2 6 hours apart plus 50 mg foscarnet/kg D1, D2, D3, individual mice) it was 32.56 um and 28.88 um and 31.39 um and 33.06 um and 28.39 um and 33.74 um; in data set [2] (13Gy plus 25 mg foscarnet -1 hr, 1, 2, 3 day, group Average) it was 57.4 um; in data set [2] (13Gy plus 25 mg foscarnet -1 hr, 1, 2, 3 day, individual mice) it was 52.5 um and 59.2 um and 57.4 um and 60.7 um and 59.5 um and 55.1 um; in data set [2] (setting [5]), 54.7 um; in data set [2] (setting [6]), 52.0 um and 57.1 um and 55.6 um and 61.9 um and 51.1 um and 50.5 um. In addition, the crypt width was 50.9 um in data set [3] (setting [5]); 52.3 um and 50.7 um and 52.1 um and 48.0 um and 51.4 um in data set [3] (setting [6]); 50.3 um in data set [3] (13Gy plus 100 mg foscarnet -1 hr, 1, 2, 3 day, group Average); 51.8 um and 51.6 um and 48.7 um and 51.4 um and 47.8 um in data set [3] (13Gy plus 100 mg foscarnet -1 hr, 1, 2, 3 day, individual mice); 30.93 um in data set [4] (50 mg foscarnet 1 hr prior to 1st dose of 5-Flurouracil (400 mg/kg x 2 6 hrs apart) and D1, D2, D3, group Average); 32.47 um and 29.79 um and 29.81 um and 31.12 um and 31.44 um in data set [4] (50 mg foscarnet 1 hr prior to 1st dose of 5-Flurouracil (400 mg/kg x 2 6 hrs apart) and D1, D2, D3, individual mice). Besides, the crypt width in data set [4] (50 mg foscarnet 1 hr prior to both doses of 5-Flurouracil (400 mg/kg x 2 6 hrs apart) and D1, D2, D3, group Average) was 30.39 um; in data set [4] (50 mg foscarnet 1 hr prior to both doses of 5-Flurouracil (400 mg/kg x 2 6 hrs apart) and D1, D2, D3, individual mice), 31.84 um and 29.66 um and 31.83 um and 28.80 um and 29.84 um; in data set [4] (50 mg foscarnet 1 hr prior to both doses of 5-Flurouracil (500 mg/kg x 2 6 hrs apart) and D1, D2, D3, group Average), 29.46 um; in data set [4] (50 mg foscarnet 1 hr prior to both doses of 5-Flurouracil (500 mg/kg x 2 6 hrs apart) and D1, D2, D3, individual mice) it was 28.66 um and 28.59 um and 31.53 um and 30.86 um and 27.67 um.

Values taken from patent US20060166941A1, “Treatment and/or prevention of non-viral epithelial damage” (Epistem Limited, priority 2003, published 2006).
